Assay results reported in patent publication US20100184178A1, “INCREASED ISOPRENE PRODUCTION USING MEVALONATE KINASE AND ISOPRENE SYNTHASE” (priority 2008, published 2010).

Tests used:
[1] = Intracellular metabolite concentrations in E. coli sampled from fermentors, LC-ESI-MS/MS; format: cell-based; details: for intracellular level: MCM343, after 100 μM IPTG; for intracellular concentration during the production period: MCM400 (Streptomyces MVK), 4×50 μM IPTG
[2] = format: cell-based, E. coli; details: strain with MVK plus PMK plus MDD; fed 5.8 mM MVA, sampled 2 hours post MVA addition

Structure (SMILES) | intracellular level [1] | MVA consumed [2] [mM] | intracellular concentration during the production period [1]
C=C(C)CCOP(=O)(O)OP(=O)(O)O [IPP, isopentenyl diphosphate] | dropped below the detection limit | – | –
C[C@@](O)(CCO)CC(=O)O [MVA, mevalonic acid] | – | 2.9 | –
C[C@@](O)(CCOP(=O)(O)O)CC(=O)O [MVP, mevalonate-5-phosphate] | No MVP or MVPP were detected | – | below the detection limit
C[C@@](O)(CCOP(=O)(O)OP(=O)(O)O)CC(=O)O [MVPP, mevalonate-5-diphosphate] | No MVP or MVPP were detected | – | below the detection limit
